# Measurements published in the supplement of paper PMC8728848.
# Some of the results follow.
# B1: Mnn9-2N3 (Aspergillus fumigatus) (protein)
# chain: MAVARRMRRTNPITLLLAAILAIGFFIFVLSPSTTSASPVKAGSASSSSTSQQRREDNAAENPLSPPTKPFFKSQPVRHDGQQAPPPVVQYNLNQLSSTSTSAANGERILILTPMARFVPEYWDNVVKLTYPHELISIGFIIPKNKEGNAALAALEAAIAKTQSGPIDKRFASISILRQDFEPPLQSQDEKERHKISNQKARRESMSRARNSLLFTTLGPATAWVLWLDADIVETPPTLIQDLTAHDHPVLVPNCYQRYYNSEKKKMDVRPYDYNSWIDSSTAQSMAAEMGPDEILLEGYAEMPTYRTLMAHLADTANPNPKKVIELDGVGGTALMVKAEVHRDGAMFPAFPFYHLVETEGFAKMAKRLGYSVYGLPDYFVSRNFFFFFFFFFFG
# Experiments:
# Experiment in all cases: glycan array binding signal (z-score within array); higher = stronger binding
# Conditions in all cases: glycan notation: IUPAC condensed, linker removed
# [1] = target: Fuc(a1-2)[Gal(a1-3)]Gal(b1-4)GlcNAc(b1-2)Man(a1-3)[Fuc(a1-2)[Gal(a1-3)]Gal(b1-4)GlcNAc(b1-2)Man(a1-6)]Man(b1-4)GlcNAc(b1-4)[Fuc(a1-6)]GlcNAc
# Method in brief: (§1)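 Negative Z-scores can be read as non-binding. The Z-score is calculated within each array and then averaged across arrays of one protein sequence at different concentrations or buffers and across linkers. Arrays, 3228 in all, were curated from the Consortium for Functional Glycomics database and kept only where the protein sequence was available.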
# [2] = target: Fuc(a1-2)[Gal(a1-3)]Gal(b1-4)GlcNAc(b1-3)GalNAc
# Method in brief: as §1
# [3] = target: Fuc(a1-2)[Gal(a1-3)]Gal(b1-4)GlcNAc(b1-3)[Fuc(a1-2)[Gal(a1-3)]Gal(b1-4)GlcNAc(b1-6)]GalNAc
# Method in brief: as §1
# [4] = target: Fuc(a1-2)[Gal(a1-3)]Gal(b1-4)GlcNAc(b1-6)GalNAc
# Method in brief: as §1
# [5] = target: Fuc(a1-2)[Gal(a1-3)]Gal(b1-4)[Fuc(a1-3)]Glc
# Method in brief: as §1
# [6] = target: Fuc(a1-2)[Gal(a1-3)]Gal(b1-4)[Fuc(a1-3)]GlcNAc
# Method in brief: as §1
# [7] = target: Fuc(a1-2)[Gal(a1-3)]Gal(b1-4)[Fuc(a1-3)]GlcNAc(b1-3)GalNAc
# Method in brief: as §1
# [8] = target: Fuc(a1-2)[Gal(a1-4)]Gal(b1-4)GlcNAc
# Method in brief: as §1
# [9] = target: Fuc(a1-2)[GalNAc(a1-3)]Gal
# Method in brief: as §1
# [10] = target: Fuc(a1-2)[GalNAc(a1-3)]Gal(b1-3)GalNAc(a1-3)[Fuc(a1-2)]Gal(b1-4)GlcNAc
# Method in brief: as §1
# [11] = target: Fuc(a1-2)[GalNAc(a1-3)]Gal(b1-3)GalNAc(b1-3)Gal(a1-4)Gal(b1-4)Glc
# Method in brief: as §1
# [12] = target: Fuc(a1-2)[GalNAc(a1-3)]Gal(b1-3)GlcNAc
# Method in brief: as §1
# [13] = target: Fuc(a1-2)[GalNAc(a1-3)]Gal(b1-3)GlcNAc(b1-2)Man(a1-3)[Fuc(a1-2)[GalNAc(a1-3)]Gal(b1-3)GlcNAc(b1-2)Man(a1-6)]Man(b1-4)GlcNAc(b1-4)GlcNAc
# Method in brief: as §1
# [14] = target: Fuc(a1-2)[GalNAc(a1-3)]Gal(b1-3)GlcNAc(b1-2)Man(a1-3)[Fuc(a1-2)[GalNAc(a1-3)]Gal(b1-3)GlcNAc(b1-2)Man(a1-6)]Man(b1-4)GlcNAc(b1-4)[Fuc(a1-6)]GlcNAc
# Method in brief: as §1
# [15] = target: Fuc(a1-2)[GalNAc(a1-3)]Gal(b1-3)GlcNAc(b1-3)GalNAc
# Method in brief: as §1
# [16] = target: Fuc(a1-2)[GalNAc(a1-3)]Gal(b1-3)GlcNAc(b1-6)GalNAc
# Method in brief: as §1
# [17] = target: Fuc(a1-2)[GalNAc(a1-3)]Gal(b1-4)Glc
# Method in brief: as §1
# [18] = target: Fuc(a1-2)[GalNAc(a1-3)]Gal(b1-4)GlcNAc
# Method in brief: as §1
# [19] = target: Fuc(a1-2)[GalNAc(a1-3)]Gal(b1-4)GlcNAc(b1-2)Man
# Method in brief: as §1
# [20] = target: Fuc(a1-2)[GalNAc(a1-3)]Gal(b1-4)GlcNAc(b1-2)Man(a1-3)[Fuc(a1-2)[GalNAc(a1-3)]Gal(b1-4)GlcNAc(b1-2)Man(a1-6)]Man(b1-4)GlcNAc(b1-4)GlcNAc
# Method in brief: as §1
# [21] = target: Fuc(a1-2)[GalNAc(a1-3)]Gal(b1-4)GlcNAc(b1-2)Man(a1-3)[Fuc(a1-2)[GalNAc(a1-3)]Gal(b1-4)GlcNAc(b1-2)Man(a1-6)]Man(b1-4)GlcNAc(b1-4)[Fuc(a1-6)]GlcNAc
# Method in brief: as §1
# [22] = target: Fuc(a1-2)[GalNAc(a1-3)]Gal(b1-4)GlcNAc(b1-3)Gal(b1-4)GlcNAc
# Method in brief: as §1
# [23] = target: Fuc(a1-2)[GalNAc(a1-3)]Gal(b1-4)GlcNAc(b1-3)Gal(b1-4)GlcNAc(b1-3)Gal(b1-4)GlcNAc
# Method in brief: as §1
# [24] = target: Fuc(a1-2)[GalNAc(a1-3)]Gal(b1-4)GlcNAc(b1-3)GalNAc
# Method in brief: as §1
# [25] = target: Fuc(a1-2)[GalNAc(a1-3)]Gal(b1-4)GlcNAc(b1-3)[Fuc(a1-2)[GalNAc(a1-3)]Gal(b1-4)GlcNAc(b1-6)]GalNAc
# Method in brief: as §1
# [26] = target: Fuc(a1-2)[GalNAc(a1-3)]Gal(b1-4)GlcNAc(b1-6)GalNAc
# Method in brief: as §1
# [27] = target: Fuc(a1-2)[GalNAc(a1-3)]Gal(b1-4)[Fuc(a1-3)]GlcNAc
# Method in brief: as §1
# [28] = target: Fuc(a1-2)[GalNAc(a1-3)]Gal(b1-4)[Fuc(a1-3)]GlcNAc(b1-3)GalNAc
# Method in brief: as §1
# [29] = target: Fuc(a1-2)[GalNAc(a1-4)]Gal(b1-4)GlcNAc
# Method in brief: as §1
# [30] = target: Fuc(a1-2)[GalNAc(b1-3)]Gal
# Method in brief: as §1
binder,measurement,setting,value
B1,glycan array binding signal (z-score),[1],-0.348
same,glycan array binding signal (z-score),[2],-0.771
same,glycan array binding signal (z-score),[3],-0.601
same,glycan array binding signal (z-score),[4],-2.06
same,glycan array binding signal (z-score),[5],1.77
same,glycan array binding signal (z-score),[6],-0.761
same,glycan array binding signal (z-score),[7],-0.097
same,glycan array binding signal (z-score),[8],-0.286
same,glycan array binding signal (z-score),[9],-0.171
same,glycan array binding signal (z-score),[10],-1.58
same,glycan array binding signal (z-score),[11],0.008
same,glycan array binding signal (z-score),[12],-1.58
same,glycan array binding signal (z-score),[13],1.75
same,glycan array binding signal (z-score),[14],0.504
same,glycan array binding signal (z-score),[15],-0.032
same,glycan array binding signal (z-score),[16],1.61
same,glycan array binding signal (z-score),[17],0.177
same,glycan array binding signal (z-score),[18],0.402
same,glycan array binding signal (z-score),[19],0.325
same,glycan array binding signal (z-score),[20],0.31
same,glycan array binding signal (z-score),[21],-0.585
same,glycan array binding signal (z-score),[22],-0.282
same,glycan array binding signal (z-score),[23],-1.18
same,glycan array binding signal (z-score),[24],-0.66
same,glycan array binding signal (z-score),[25],-0.67
same,glycan array binding signal (z-score),[26],2.39
same,glycan array binding signal (z-score),[27],-0.297
same,glycan array binding signal (z-score),[28],-2.19
same,glycan array binding signal (z-score),[29],0.17
same,glycan array binding signal (z-score),[30],0.1

# Given bar-delimited: entries from further up.
binder | measurement | setting | value
B1 | glycan array binding signal (z-score) | [5] | 1.77
same | glycan array binding signal (z-score) | [6] | -0.761
same | glycan array binding signal (z-score) | [7] | -0.097
same | glycan array binding signal (z-score) | [8] | -0.286
same | glycan array binding signal (z-score) | [9] | -0.171
same | glycan array binding signal (z-score) | [10] | -1.58
